The list shows a part of the results.
Tests used:
Assay in all cases: log2 fold change, soluble protein after heating vs DMSO (PISA); higher = thermal stabilisation; K562 lysate, 10 uM; active = over 0.2 and 3.5 SD of the protein, either way, in both replicates (recomputed)
alvocidib = compound: CN1CC[C@H](c2c(O)cc(O)c3c(=O)cc(-c4ccccc4Cl)oc23)[C@H](O)C1 [alvocidib]
Procedure, shortened: (§1)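 K562 pellets were dounce-homogenised in PBS pH 7.4 with 1 mM MgCl2, and the crude extract at 1 mg/mL protein was treated with 10 μM compound for 30 min. Aliquots were heated for 3 min across 48°C-58°C, pooled, and brought to 0.5% NP-40 at 4°C; soluble protein was the supernatant after 21,000xg for 90 min. Soluble protein was quantified by TMTpro 16plex LC-MS/MS with channel sums equalised, and reported as log2 fold change in thermal stability against DMSO controls, with values from duplicates.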

Chains of the proteins cited; added tags and fusions are not shown. Lines headed by an entry give the natural chain unless they say otherwise; changes in a name come on top.
UniProt P13804: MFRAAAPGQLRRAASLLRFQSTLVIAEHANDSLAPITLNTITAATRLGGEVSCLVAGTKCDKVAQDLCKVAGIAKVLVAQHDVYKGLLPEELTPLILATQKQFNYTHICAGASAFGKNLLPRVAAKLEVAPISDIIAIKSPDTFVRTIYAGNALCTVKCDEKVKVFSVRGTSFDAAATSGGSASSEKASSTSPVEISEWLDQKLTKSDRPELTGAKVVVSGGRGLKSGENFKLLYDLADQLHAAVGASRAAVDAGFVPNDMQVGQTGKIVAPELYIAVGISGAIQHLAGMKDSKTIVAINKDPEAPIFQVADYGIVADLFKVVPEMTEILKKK
UniProt Q01469, whole entry, looked up: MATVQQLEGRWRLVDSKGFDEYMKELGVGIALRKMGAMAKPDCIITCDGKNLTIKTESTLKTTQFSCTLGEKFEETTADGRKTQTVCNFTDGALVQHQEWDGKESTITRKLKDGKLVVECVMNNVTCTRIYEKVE
UniProt Q0VG06: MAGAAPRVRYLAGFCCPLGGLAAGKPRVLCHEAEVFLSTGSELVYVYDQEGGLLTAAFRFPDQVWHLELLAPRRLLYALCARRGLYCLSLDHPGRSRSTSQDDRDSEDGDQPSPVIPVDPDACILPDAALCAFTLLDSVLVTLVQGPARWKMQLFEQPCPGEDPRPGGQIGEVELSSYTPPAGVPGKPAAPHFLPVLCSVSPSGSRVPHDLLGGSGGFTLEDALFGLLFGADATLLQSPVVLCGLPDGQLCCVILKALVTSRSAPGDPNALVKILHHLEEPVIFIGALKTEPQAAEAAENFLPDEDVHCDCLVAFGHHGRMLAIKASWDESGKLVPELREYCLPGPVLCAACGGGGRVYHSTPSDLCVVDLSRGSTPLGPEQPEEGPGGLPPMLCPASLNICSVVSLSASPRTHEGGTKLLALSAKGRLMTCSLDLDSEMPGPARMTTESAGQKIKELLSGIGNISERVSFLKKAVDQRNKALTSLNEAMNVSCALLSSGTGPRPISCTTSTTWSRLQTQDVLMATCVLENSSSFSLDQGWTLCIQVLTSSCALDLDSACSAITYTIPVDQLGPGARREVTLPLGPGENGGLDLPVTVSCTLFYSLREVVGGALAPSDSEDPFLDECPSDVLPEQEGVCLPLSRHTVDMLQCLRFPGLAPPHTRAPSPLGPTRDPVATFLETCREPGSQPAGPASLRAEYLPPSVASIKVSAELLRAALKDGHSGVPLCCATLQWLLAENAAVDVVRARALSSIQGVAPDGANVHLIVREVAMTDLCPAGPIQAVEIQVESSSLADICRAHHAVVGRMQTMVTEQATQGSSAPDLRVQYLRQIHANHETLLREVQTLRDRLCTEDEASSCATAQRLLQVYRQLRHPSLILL
UniProt Q9UNN5: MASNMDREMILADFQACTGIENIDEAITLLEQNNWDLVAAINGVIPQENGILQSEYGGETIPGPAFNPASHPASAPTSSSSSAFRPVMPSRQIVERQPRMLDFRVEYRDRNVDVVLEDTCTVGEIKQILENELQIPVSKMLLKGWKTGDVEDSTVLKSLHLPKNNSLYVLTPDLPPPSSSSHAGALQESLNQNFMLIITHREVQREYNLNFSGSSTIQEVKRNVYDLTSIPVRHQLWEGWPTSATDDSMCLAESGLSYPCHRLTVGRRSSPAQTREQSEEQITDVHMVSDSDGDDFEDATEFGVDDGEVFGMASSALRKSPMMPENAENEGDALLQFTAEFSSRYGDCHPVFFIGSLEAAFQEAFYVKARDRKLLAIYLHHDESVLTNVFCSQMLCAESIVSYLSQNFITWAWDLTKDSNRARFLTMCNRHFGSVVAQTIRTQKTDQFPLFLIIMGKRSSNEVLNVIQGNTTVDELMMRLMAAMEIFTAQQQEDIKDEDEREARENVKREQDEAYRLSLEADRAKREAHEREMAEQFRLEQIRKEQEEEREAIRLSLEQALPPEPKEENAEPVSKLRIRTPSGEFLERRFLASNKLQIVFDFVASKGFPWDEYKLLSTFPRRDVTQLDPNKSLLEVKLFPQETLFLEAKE
UniProt Q96KR6: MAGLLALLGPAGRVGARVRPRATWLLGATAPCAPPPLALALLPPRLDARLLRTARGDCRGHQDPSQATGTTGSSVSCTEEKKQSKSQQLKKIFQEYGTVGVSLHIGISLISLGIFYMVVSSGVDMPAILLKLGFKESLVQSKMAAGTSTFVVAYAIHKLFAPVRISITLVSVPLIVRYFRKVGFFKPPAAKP
UniProt P98173: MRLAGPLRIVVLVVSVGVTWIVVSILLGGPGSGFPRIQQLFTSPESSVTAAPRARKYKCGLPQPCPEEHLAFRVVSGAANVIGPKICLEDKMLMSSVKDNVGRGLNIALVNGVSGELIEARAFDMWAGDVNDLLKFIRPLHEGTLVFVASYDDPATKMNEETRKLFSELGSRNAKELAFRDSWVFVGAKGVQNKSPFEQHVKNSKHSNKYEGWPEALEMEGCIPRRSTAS
UniProt Q9C073: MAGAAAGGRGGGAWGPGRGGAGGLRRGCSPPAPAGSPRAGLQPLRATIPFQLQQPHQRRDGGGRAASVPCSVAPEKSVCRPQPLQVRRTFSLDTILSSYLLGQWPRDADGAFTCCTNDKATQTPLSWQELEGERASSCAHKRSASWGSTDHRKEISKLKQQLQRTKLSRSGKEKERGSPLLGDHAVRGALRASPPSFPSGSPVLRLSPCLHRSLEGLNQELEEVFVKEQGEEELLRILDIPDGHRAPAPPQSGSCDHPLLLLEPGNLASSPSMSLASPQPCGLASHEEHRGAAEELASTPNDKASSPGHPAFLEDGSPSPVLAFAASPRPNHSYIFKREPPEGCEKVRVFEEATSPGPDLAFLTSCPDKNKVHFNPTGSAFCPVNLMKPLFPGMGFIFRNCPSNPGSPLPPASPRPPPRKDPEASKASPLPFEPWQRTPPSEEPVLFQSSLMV
UniProt Q9NQT5, whole entry, looked up: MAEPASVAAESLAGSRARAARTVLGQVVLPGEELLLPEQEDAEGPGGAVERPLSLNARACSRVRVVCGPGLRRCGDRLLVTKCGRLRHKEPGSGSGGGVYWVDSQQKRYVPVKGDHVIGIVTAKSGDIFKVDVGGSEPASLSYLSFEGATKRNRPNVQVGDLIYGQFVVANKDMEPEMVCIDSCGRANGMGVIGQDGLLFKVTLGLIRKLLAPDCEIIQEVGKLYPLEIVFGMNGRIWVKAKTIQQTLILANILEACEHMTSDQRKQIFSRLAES
UniProt Q06265, whole entry, looked up: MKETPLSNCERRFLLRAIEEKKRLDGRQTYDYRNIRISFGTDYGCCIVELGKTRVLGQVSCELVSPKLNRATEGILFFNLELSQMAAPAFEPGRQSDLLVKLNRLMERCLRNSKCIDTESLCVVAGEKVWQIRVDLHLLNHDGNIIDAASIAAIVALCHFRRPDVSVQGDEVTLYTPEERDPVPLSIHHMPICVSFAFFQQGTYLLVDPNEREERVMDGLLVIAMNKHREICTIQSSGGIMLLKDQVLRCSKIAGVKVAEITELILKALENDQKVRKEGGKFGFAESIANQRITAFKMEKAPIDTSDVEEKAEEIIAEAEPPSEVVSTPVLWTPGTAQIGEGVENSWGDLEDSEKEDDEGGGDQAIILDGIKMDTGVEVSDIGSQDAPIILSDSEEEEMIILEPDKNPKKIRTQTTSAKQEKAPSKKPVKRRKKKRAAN
UniProt Q8IXS8: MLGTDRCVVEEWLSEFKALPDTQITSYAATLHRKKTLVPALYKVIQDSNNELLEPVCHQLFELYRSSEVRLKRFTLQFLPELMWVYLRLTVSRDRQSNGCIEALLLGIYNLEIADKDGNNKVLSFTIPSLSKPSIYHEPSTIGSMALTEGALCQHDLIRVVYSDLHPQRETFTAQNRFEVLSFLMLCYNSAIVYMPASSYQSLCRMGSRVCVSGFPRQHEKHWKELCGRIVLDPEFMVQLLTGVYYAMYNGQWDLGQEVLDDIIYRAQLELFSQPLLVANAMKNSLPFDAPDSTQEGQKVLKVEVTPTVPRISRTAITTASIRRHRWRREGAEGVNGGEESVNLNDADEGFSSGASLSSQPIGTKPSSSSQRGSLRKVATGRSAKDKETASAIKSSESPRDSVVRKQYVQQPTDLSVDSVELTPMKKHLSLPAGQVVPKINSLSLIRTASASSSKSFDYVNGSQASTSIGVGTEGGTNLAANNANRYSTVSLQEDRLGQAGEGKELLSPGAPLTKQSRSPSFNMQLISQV
UniProt Q8TAV0: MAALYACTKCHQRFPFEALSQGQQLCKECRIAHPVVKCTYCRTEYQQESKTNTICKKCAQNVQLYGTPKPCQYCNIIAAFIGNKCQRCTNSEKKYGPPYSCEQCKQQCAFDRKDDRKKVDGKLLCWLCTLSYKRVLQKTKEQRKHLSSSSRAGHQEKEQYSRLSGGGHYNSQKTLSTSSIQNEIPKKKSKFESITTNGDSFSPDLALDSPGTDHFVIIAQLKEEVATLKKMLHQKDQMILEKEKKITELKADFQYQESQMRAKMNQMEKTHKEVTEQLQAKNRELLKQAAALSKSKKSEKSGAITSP
UniProt Q96RI0: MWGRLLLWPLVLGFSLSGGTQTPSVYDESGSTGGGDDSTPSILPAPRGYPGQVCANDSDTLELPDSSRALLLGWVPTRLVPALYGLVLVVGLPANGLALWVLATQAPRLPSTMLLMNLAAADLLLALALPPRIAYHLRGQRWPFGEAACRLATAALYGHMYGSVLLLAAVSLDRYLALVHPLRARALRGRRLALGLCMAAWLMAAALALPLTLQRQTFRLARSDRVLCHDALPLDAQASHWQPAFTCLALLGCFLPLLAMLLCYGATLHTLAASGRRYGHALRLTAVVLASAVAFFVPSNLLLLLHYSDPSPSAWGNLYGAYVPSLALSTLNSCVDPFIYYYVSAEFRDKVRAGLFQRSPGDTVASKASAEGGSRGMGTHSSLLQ
UniProt Q9NVQ4: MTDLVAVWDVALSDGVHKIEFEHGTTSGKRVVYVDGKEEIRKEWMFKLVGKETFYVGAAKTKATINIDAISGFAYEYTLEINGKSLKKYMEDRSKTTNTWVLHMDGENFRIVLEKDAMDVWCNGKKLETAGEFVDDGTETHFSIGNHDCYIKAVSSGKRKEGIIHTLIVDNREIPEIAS
UniProt Q6P2I3: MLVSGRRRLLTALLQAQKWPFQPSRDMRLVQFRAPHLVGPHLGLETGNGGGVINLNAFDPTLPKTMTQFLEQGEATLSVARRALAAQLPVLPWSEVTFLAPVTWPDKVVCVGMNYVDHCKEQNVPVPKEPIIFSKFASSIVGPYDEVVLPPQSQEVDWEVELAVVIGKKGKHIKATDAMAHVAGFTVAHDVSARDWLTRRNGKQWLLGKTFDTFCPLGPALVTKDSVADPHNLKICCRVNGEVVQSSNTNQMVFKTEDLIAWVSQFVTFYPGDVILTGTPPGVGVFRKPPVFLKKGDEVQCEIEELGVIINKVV
UniProt Q8IWE2: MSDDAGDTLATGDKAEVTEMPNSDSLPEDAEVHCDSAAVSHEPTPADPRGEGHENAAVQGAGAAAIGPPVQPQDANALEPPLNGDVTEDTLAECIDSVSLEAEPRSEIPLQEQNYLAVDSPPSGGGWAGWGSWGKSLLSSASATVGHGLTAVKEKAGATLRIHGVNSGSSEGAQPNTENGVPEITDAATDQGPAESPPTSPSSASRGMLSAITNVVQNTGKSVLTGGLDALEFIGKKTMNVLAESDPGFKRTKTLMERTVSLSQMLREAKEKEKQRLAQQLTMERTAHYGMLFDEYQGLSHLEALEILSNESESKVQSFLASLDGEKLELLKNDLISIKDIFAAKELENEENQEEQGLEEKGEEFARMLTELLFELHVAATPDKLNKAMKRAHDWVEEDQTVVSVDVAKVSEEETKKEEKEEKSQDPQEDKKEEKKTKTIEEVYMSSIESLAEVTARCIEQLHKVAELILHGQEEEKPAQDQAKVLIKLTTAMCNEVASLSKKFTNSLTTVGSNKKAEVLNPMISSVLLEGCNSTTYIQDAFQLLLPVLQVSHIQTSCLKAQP
UniProt Q96HE7: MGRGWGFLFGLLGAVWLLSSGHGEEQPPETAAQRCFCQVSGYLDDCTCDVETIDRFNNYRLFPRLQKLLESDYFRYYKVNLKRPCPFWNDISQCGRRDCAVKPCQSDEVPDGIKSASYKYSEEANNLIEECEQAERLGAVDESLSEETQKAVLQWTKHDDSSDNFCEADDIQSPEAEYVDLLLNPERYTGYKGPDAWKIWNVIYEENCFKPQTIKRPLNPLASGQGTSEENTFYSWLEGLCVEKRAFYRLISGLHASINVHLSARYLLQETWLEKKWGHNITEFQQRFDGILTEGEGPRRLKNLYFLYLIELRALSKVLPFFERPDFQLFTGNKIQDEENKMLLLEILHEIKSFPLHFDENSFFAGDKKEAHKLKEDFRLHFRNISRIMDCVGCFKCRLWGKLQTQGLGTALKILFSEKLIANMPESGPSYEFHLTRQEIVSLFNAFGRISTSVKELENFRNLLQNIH

Tubastatin A = compound: CN1CCc2c(c3ccccc3n2Cc2ccc(C(=O)NO)cc2)C1 [Tubastatin A]
Procedure, shortened: as §1

[1] = compound: CNC(=O)C1=CC=CC=C1NC2=NC(=NC=C2Cl)NC3=C(C=C(C=C3)N4CCOCC4)OC
Procedure, shortened: as §1

defactinib = compound: CNC(=O)c1ccc(Nc2ncc(C(F)(F)F)c(NCc3nccnc3N(C)S(C)(=O)=O)n2)cc1 [defactinib]
Procedure, shortened: as §1

[2] = compound: CNc1nc(-c2ccc3c(N)n[nH]c3c2)cc(N2C[C@@H](C(=O)NC3CCCCC3)CC[C@H]2C)n1
Procedure, shortened: as §1

encorafenib = compound: COC(=O)N[C@@H](C)CNc1nccc(-c2cn(C(C)C)nc2-c2cc(Cl)cc(NS(C)(=O)=O)c2F)n1 [encorafenib]
Procedure, shortened: as §1

[3] = compound: COC(=O)[C@H](CCSC)NC(=O)C1=C(C=C(C=C1)NC[C@H](CS)N)C2=CC=CC=C2
Procedure, shortened: as §1

alisertib = compound: COc1cc(Nc2ncc3c(n2)-c2ccc(Cl)cc2C(c2c(F)cccc2OC)=NC3)ccc1C(=O)O [alisertib]
Procedure, shortened: as §1

[4] = compound: COc1cc2nc(-c3cc(F)ccc3O)nc(N[C@@H]3CNC[C@H]3C(C)(C)O)c2cc1OC
Procedure, shortened: as §1

gefitinib = compound: COc1cc2ncnc(Nc3ccc(F)c(Cl)c3)c2cc1OCCCN1CCOCC1 [gefitinib]
Procedure, shortened: as §1

Measured: log2 fold change

ETFA (UniProt P13804)
inactive: alvocidib 0.005 | Tubastatin A 0.002 | [1] -0.006 | defactinib -0.054 | [2] -0.041 | encorafenib -0.038 | [3] 0.02 | alisertib 0.011 | [4] -0.002 | gefitinib -0.032

EXT2 isoform 3 (UniProt Q93063)
inactive: alvocidib 0.038 | Tubastatin A 0.005 | [1] -0.17 | defactinib -0.076 | [2] -0.042 | encorafenib 0.046 | [3] -0.041 | alisertib -0.018 | [4] 0.052 | gefitinib 0.043

ETF1 (UniProt P62495)
inactive: alvocidib 0.008 | Tubastatin A 0.008 | [1] -0.007 | defactinib -0.022 | [2] -0.014 | encorafenib -0.023 | [3] 0.023 | alisertib 0.004 | [4] 0.012 | gefitinib -0.014

FABP5 (UniProt Q01469)
inactive: alvocidib 0.048 | Tubastatin A 0.055 | [1] -0.007 | defactinib -0.066 | [2] -0.11 | encorafenib -0.06 | [3] -0.015 | alisertib -0.051 | [4] -0.057 | gefitinib -0.03

FAAP100 (UniProt Q0VG06)
inactive: alvocidib -0.045 | Tubastatin A -0.124 | [1] -0.026 | defactinib 0.079 | [2] -0.041 | encorafenib -0.034 | [3] -0.029 | alisertib -0.07 | [4] 0.023 | gefitinib 0.015

FAF1 (UniProt Q9UNN5)
inactive: alvocidib -0.017 | Tubastatin A 0 | [1] -0.012 | defactinib 0.011 | [2] -0.04 | encorafenib 0.043 | [3] -0.048 | alisertib -0.026 | [4] -0.01 | gefitinib 0

FAM210B (UniProt Q96KR6)
inactive: alvocidib -0.023 | Tubastatin A 0.009 | [1] -0.002 | defactinib -0.092 | [2] 0.092 | encorafenib -0.017 | [3] -0.002 | alisertib 0.002 | [4] -0.022 | gefitinib 0.057

EXOC8 (UniProt Q8IYI6)
inactive: alvocidib 0.025 | Tubastatin A -0.031 | [1] 0.023 | defactinib 0.002 | [2] -0.001 | encorafenib 0.003 | [3] 0.007 | alisertib -0.023 | [4] 0 | gefitinib -0.025

FAM118B (UniProt Q9BPY3)
inactive: alvocidib -0.023 | Tubastatin A -0.058 | [1] -0.002 | defactinib 0.037 | [2] -0.009 | encorafenib 0.026 | [3] -0.048 | alisertib -0.011 | [4] -0.043 | gefitinib 0.016

FAM3A (UniProt P98173)
inactive: alvocidib 0.057 | Tubastatin A 0.113 | [1] -0.009 | defactinib 0.076 | [2] -0.018 | encorafenib 0.019 | [3] -0.051 | alisertib -0.032 | [4] 0.018 | gefitinib -0.009

FAM117A (UniProt Q9C073)
inactive: alvocidib -0.001 | Tubastatin A 0.001 | [1] 0.042 | defactinib -0.04 | [2] 0.002 | encorafenib -0.056 | [3] -0.033 | alisertib -0.046 | [4] -0.032 | gefitinib -0.051

EXOG (UniProt Q9Y2C4)
inactive: alvocidib -0.094 | Tubastatin A -0.059 | [1] -0.019 | defactinib 0.133 | [2] -0.012 | encorafenib 0.206 | [3] -0.04 | alisertib 0.091 | [4] -0.099 | gefitinib -0.018

EXOSC3 (UniProt Q9NQT5)
inactive: alvocidib -0.036 | Tubastatin A -0.025 | [1] 0.018 | defactinib 0.073 | [2] 0.058 | encorafenib 0.015 | [3] 0.042 | alisertib 0.035 | [4] 0.039 | gefitinib -0.012

EXOSC9 (UniProt Q06265)
inactive: alvocidib 0.008 | Tubastatin A 0.045 | [1] 0.001 | defactinib -0.052 | [2] 0.04 | encorafenib 0.026 | [3] -0.111 | alisertib 0.001 | [4] 0.01 | gefitinib -0.037

Quoted from the entries so far (2 entries):
FAAP100 (UniProt Q0VG06)
inactive: alvocidib -0.045 | Tubastatin A -0.124 | [1] -0.026 | defactinib 0.079 | [2] -0.041 | encorafenib -0.034 | [3] -0.029 | alisertib -0.07 | [4] 0.023 | gefitinib 0.015

FAF1 (UniProt Q9UNN5)
inactive: alvocidib -0.017 | Tubastatin A 0 | [1] -0.012 | defactinib 0.011 | [2] -0.04 | encorafenib 0.043 | [3] -0.048 | alisertib -0.026 | [4] -0.01 | gefitinib 0

More records:

FAH (UniProt P16930)
inactive: alvocidib -0.052 | Tubastatin A 0.038 | [1] 0.008 | defactinib 0.039 | [2] 0.043 | encorafenib -0.007 | [3] -0.043 | alisertib -0.01 | [4] -0.009 | gefitinib 0.003

FAM126B (UniProt Q8IXS8)
inactive: alvocidib -0.077 | Tubastatin A -0.06 | [1] 0.079 | defactinib 0.1 | [2] -0.158 | encorafenib -0.077 | [3] -0.152 | [4] 0.091

FAM20B (UniProt O75063)
inactive: alvocidib 0.026 | Tubastatin A 0.04 | [1] -0.025 | defactinib -0.037 | [2] -0.018 | encorafenib 0.017 | [3] -0.03 | alisertib 0 | [4] -0.017 | gefitinib 0.019

FAM76A isoform 3 (UniProt Q8TAV0)
inactive: alvocidib -0.033 | Tubastatin A 0.094 | [1] -0.025 | defactinib 0.065 | [2] -0.091 | encorafenib -0.015 | [3] -0.145 | alisertib -0.057 | [4] -0.009 | gefitinib -0.139

F2RL3 (UniProt Q96RI0)
inactive: alvocidib -0.008 | Tubastatin A 0.128 | [1] 0.104 | defactinib -0.128 | [2] 0.033 | alisertib -0.014 | [4] -0.013 | gefitinib 0.087

FAIM isoform 2 (UniProt Q9NVQ4)
inactive: alvocidib -0.015 | Tubastatin A 0.012 | [1] 0.007 | defactinib -0.043 | [2] 0.115 | encorafenib 0.036 | [3] 0.106 | alisertib -0.029 | [4] -0.035 | gefitinib 0.235

FAF2 (UniProt Q96CS3)
inactive: alvocidib 0.035 | Tubastatin A 0.001 | [1] 0.013 | defactinib -0.028 | [2] -0.002 | encorafenib 0.015 | [3] -0.013 | alisertib -0.074 | [4] -0.017 | gefitinib 0.008

FAHD2B (UniProt Q6P2I3)
inactive: alvocidib -0.012 | Tubastatin A -0.041 | [1] -0.078 | defactinib 0.11 | [2] 0 | encorafenib -0.083 | [3] -0.026 | alisertib 0.124 | [4] 0.046 | gefitinib -0.155

FAM114A1 (UniProt Q8IWE2)
inactive: alvocidib -0.046 | Tubastatin A -0.132 | [1] -0.111 | defactinib -0.017 | [2] 0.182 | encorafenib 0.096 | [3] -0.019 | [4] 0.017

ERO1A (UniProt Q96HE7)
inactive: alvocidib 0.005 | Tubastatin A 0.006 | [1] 0.013 | defactinib 0.004 | [2] -0.023 | encorafenib -0.011 | [3] 0.017 | alisertib -0.002 | [4] -0.004 | gefitinib 0.011

FAM160B2 (UniProt Q86V87)
inactive: alvocidib -0.222 | Tubastatin A -0.088 | [1] 0.12 | defactinib 0.216 | encorafenib 0.158 | [3] -0.236 | alisertib 0.04 | gefitinib -0.022

ERLIN2 (UniProt O94905)
inactive: alvocidib 0.164 | Tubastatin A 0.016 | [1] 0.005 | defactinib 0.002 | [2] 0 | encorafenib 0.045 | [3] -0.164 | alisertib 0 | [4] -0.06 | gefitinib 0.005
